The values below come from article PMC4624933.

Sequences of proteins named here, by UniProt entry; tags and fusion partners are left off. Residues count along the entry.
UniProt P05106, residues 742-788: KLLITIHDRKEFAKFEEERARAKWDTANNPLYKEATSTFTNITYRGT
UniProt P05556, residues 752-798: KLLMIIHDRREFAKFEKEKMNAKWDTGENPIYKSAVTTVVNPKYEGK

Assay [1] has as its target GST-β3 integrin cytoplasmic tail (UniProt P05106). In words: pull-down; GST-β1 or GST-β3 cytoplasmic tails on glutathione-Sepharose beads, incubated 4 h at 4°C with pre-osteoblast lysates (cell lysis buffer: 10 mM PIPES pH 6.8, 100 mM NaCl, 0.1% deoxycholate, 0.5% Triton X100); beads and lysates pre-incubated 1 h with BJINT derivatives (printed 50 mM) or vehicle; Western blot with anti kindlin or anti talin head antibodies; only the target purified. For orientation: Immunoblotting shows a protein as a band on a membrane.

The target of assay [2] is GST-β1 integrin cytoplasmic tail (UniProt P05556). The assay is described as above.
The target in assay [3] is GST kindlin-2-FERM domain (UniProt Q96AC1). In words: ELISA; solid phase binding assay, room temperature; Maxisorp plates coated with 10 μg/mL GST-talin-F2/F3 or GST kindlin-2-FERM domain; biotinylated GST-β integrin tails in cell lysis buffer (non-ionic detergent) at increasing concentrations, 1 h; streptavidin-HRP/ABTS, A405; signal on plain GST subtracted; both purified. For orientation: ELISA stands for enzyme-linked immunosorbent assay.

No constants are given. Whether binding was seen depends on the method and setting. For part of these data: In cells and extracts the contact can be indirect. Some entries that bind do so weakly or less than the wild type.

“GFP-kindlin-2 (from UniProt Q96AC1 1-680)”: the binding result in assay [1] and in assay [2] was “binds” in each case. As to “biotinylated GST-β1 integrin cytoplasmic tail (from UniProt P05556 752-798) (domain or fragment)”, in assay [3], the binding result is “binds”. Regarding “biotinylated GST-β3 integrin cytoplasmic tail (from UniProt P05106 742-788) (domain or fragment)”, the binding entry in assay [3] is “binds”.

B1: endogenous kindlin-2 (protein, UniProt Q8CIB5 1-680)
chain: MALDGIRMPDGCYADGTWELSVHVTDLNRDVTLRVTGEVHIGGVMLKLVEKLDVKKDWSDHALWWEKKRTWLLKTHWTLDKCGIQADAKLQFTPQHKLLRLQLPNMKYVKVKVNFSDRVFKAVSDICKTFNIRHPEELSLLKKPRDPTKKKKKKLDDQSEDEALELEGPLIMPGSGSIYSSPGLYSKTMTPTYDAHDGSPLSPTSAWFGDSALSEGNPGILAVSQPVTSPEILAKMFKPQALLDKAKTNQGWLDSSRSLMEQDVKENEALLLRFKYYSFFDLNPKYDAIRINQLYEQAKWALLLEEIECTEEEMMMFAALQYHINKLSIMTSENHLNNSDKEVDEVDAALSDLEITLEGGKTSTILGDITSIPELADYIKVFKPKKLTLKGYKQYWCTFKDTSISCYKSREESSGTPAHQLNLRGCEVTPDVNISGQKFNIKLLIPVAEGMNEIWLRCDNEKQYAHWMAACRLASKGKTMADSSYNLEVQNILSFLKMQHLNPDPQLIPDQITTDVNPECLVSPRYLKKYKSKQITARILEAHQNVAQMSLIEAKMRFIQAWQSLPEFGITHFIARFQGGKREELIGIAYNRLIRMDASTGDAIKTWRFSNMKQWNVNWEIKMVTVEFADEVRLSFICTEVDCKVVHEFIGGYIFLSTRAKDQNESLDEEMFYKLTSGWV
As to B1, the binding entry in assay [1] and in assay [2] was “binds” in each case.
